According to the supplement of paper PMC4371806:
Over roughly 2,300 compounds, “plate-normalized OD600 growth (mean of duplicates)” has its median near 0.29; the lowest 2% begin near 0.22. The list shows a part of the results.

Test system: Escherichia coli BW25113
Assay: plate-normalized OD600 growth (mean of duplicates) (OD600 (normalized)); higher = more growth (less inhibition)
Details: 10 µM
Protocol: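 E. coli BW25113 in LB (100 µl, 96-well, no shaking) was exposed to 10 µM of each compound from a ~30,000-member library and grown at 37°C for 24 h or 15°C for 48 h, in duplicate. Growth was read as OD600 and the duplicate ODs were normalized across screening plates to correct plate-to-plate variation. Hits were >3σ below the mean OD600 at 15°C and <2σ below the mean at 37°C.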

SMILES | plate-normalized OD600 growth (temperature: 15°C, 48 h) | plate-normalized OD600 growth (temperature: 37°C, 24 h)
O=C(NC(=S)Nc1ccc(N2CCCCC2)cc1)c1cc2ccccc2o1 | 0.248 | 0.616
CCCCNS(=O)(=O)c1cnn(-c2ccccc2)c1Cl | 0.233 | 0.607
O=[N+]([O-])c1ccc(Nc2nc(N/N=C/c3ccc(Cl)cc3)nc(N3CCCC3)n2)cc1 | 0.251 | 0.589
COc1cc(C2Sc3ccccc3NC3=C2C(=O)OC3)cc(OC)c1OC (stereo not given) | 0.247 | 0.611
COc1cc(C=NCc2ccco2)ccc1O | 0.242 | 0.622
O=C1C2C(c3ccc(Cl)cc3)OC3(C(=O)c4ccccc4C3=O)C2C(=O)N1CCc1ccccc1 (stereo not given) | 0.27 | 0.628
c1ccc(-c2cc3c(nn2)CCc2nonc2-3)cc1 | 0.27 | 0.648
CC(=O)Nc1cc2ccccc2oc1=O | 0.249 | 0.601
COC(=O)C1=C(C)NC2=C(C(=O)CC(c3ccc(OC)cc3)C2)C1c1cccc2ccccc12 (stereo not given) | 0.245 | 0.611
Cc1nn(C)c(C)c1[N+](=O)[O-] | 0.259 | 0.621
CCC(=O)NNc1cc(N2CCCC2)nc(N2CCCC2)n1 | 0.234 | 0.622
CCOC(=O)c1cc(C#N)c(C(C#N)c2nc3ccccc3s2)nc1N (stereo not given) | 0.249 | 0.608
CCOc1cccc(=O)c2c(C)n(-c3ccc4c(c3)OCO4)c(C)c12 | 0.23 | 0.645
Cc1ccc(N=Cc2ccc(SCC(=O)Nc3ccccc3)o2)cc1 | 0.234 | 0.619
O=C(Nc1ccncc1)C1COc2ccccc2O1 (stereo not given) | 0.251 | 0.601
CCNc1nc(NCC)n2c(SCC(=O)N(c3ccccc3)c3ccccc3)nnc2n1 | 0.241 | 0.631
COc1cc(C2C(C(=O)Nc3ccccc3)=C(C)Nc3nc4ccccc4n32)c([N+](=O)[O-])cc1OC (stereo not given) | 0.239 | 0.614
CCCCCCCCc1nnc(N)s1 | 0.252 | 0.628
O=C(CC1(O)C(=O)C=C(c2ccccc2)N1N=C(c1ccccc1)c1ccccc1)c1ccccc1 (stereo not given) | 0.242 | 0.588
NC(=O)c1cnc(NCCc2ccc(O)c(Cl)c2)nc1NCc1ccccc1 | 0.26 | 0.622
c1ccc(N2CCN(Cc3cn4ccccc4n3)CC2)nc1 | 0.263 | 0.632
Cc1nc2ccccc2nc1N=C(N)NC(=O)c1ccccc1 | 0.232 | 0.629
CC/C(=N\Nc1nc(-c2ccc(I)cc2)cs1)c1ccc(Cl)cc1 | 0.252 | 0.634
O=C(COc1nsnc1N1CCOCC1)Nc1cccc(F)c1 | 0.231 | 0.615

SMILES | plate-normalized OD600 growth (temperature: 15°C, 48 h) | plate-normalized OD600 growth (temperature: 37°C, 24 h)
CC1CN=C(NC2CCCCC2)S1 (stereo not given) | 0.249 | 0.615
O=C(c1cccc([N+](=O)[O-])c1)c1cc2cc(Br)cc(Br)c2o1 | 0.298 | 0.626
Clc1nc(Nc2nc(-c3ccccc3)cs2)nc(Oc2ccccc2)n1 | 0.248 | 0.613
O=C(O)C1CC(=O)N(Cc2ccccc2)C(=Nc2ccc(F)cc2)S1 (stereo not given) | 0.221 | 0.601
CC1COCCN1c1cc(N2CCCCC2C(F)(F)F)[nH]c(=O)c1 (stereo not given) | 0.265 | 0.635
C/C(=N\NC(=O)CNC(=O)C(c1ccccc1)c1ccccc1)c1ccc2ccccc2c1 | 0.244 | 0.633
COC(=O)c1sc(-c2cccs2)cc1NC(=O)/C=C/C(=O)O | 0.242 | 0.632
CN(C(=O)CCN1C(=O)C(C)(C)Nc2ccccc21)c1ccccc1 | 0.26 | 0.611
Cc1cccc(C)c1NC(=O)C(C)Oc1ccc(Cl)cc1Cl (stereo not given) | 0.255 | 0.608
O=C1CCNc2ccc(-c3ccccc3)cc21 | 0.244 | 0.637
CCOc1ccc(S(=O)(=O)NCCc2c(C)[nH]c3c(C)cccc23)c2ccccc12 | 0.251 | 0.62
CSc1nc2ccc(NC(=O)c3c(-c4ccccc4)noc3C)cc2s1 | 0.262 | 0.611
Oc1ccc(N=Nc2n[nH]c(-c3ccccc3)n2)cc1 | 0.25 | 0.625
CC(=O)Nc1c2c3c(cccc3n(C)c1=O)C(=O)c1ccccc1-2 | 0.229 | 0.632
CCCCCCCNC1CC(=O)N(c2ccc(Br)cc2)C1=O (stereo not given) | 0.243 | 0.629
CCOc1ccc(C(CC(=O)O)NC(=O)c2c(-c3ccccc3)noc2C)cc1 (stereo not given) | 0.243 | 0.616
O=C(c1ccccc1Br)N1CCN(c2ccc([N+](=O)[O-])c(N3CCOCC3)c2)CC1 | 0.246 | 0.611
O=C(Nc1ccccc1)Nn1c(-c2ccccc2)nc2ccc(I)cc2c1=O | 0.253 | 0.614
CN(C)/C=C1\C(=O)c2ccccc2N(C)S1(=O)=O | 0.251 | 0.643
O=S(=O)(c1ccc(Cl)cc1)N1CCN(c2ccnc3cc(Cl)ccc23)CC1 | 0.269 | 0.636
NNC(=O)CSc1c(-c2cccs2)[nH]c2ccccc12 | 0.23 | 0.617
COc1ccc(-c2cc(-c3ccc(Cl)c(Cl)c3)nc(N)c2C#N)cc1OC | 0.237 | 0.611
N#CC(C#N)=CNc1cc(C(F)(F)F)ccc1N1CCCCC1 | 0.247 | 0.626
Nn1cnnc1N/N=C/c1ccc(-c2ccc(OC(F)(F)F)cc2)o1 | 0.256 | 0.626

SMILES | plate-normalized OD600 growth (temperature: 15°C, 48 h) | plate-normalized OD600 growth (temperature: 37°C, 24 h)
Nc1nonc1C(=NCc1ccccc1)NOCc1ccc(Cl)cc1Cl | 0.256 | 0.617
CCOc1ccc(C(CC(=O)O)NC(C)=O)cc1 (stereo not given) | 0.26 | 0.606
C/C(=N\NC(=O)CNC(=O)C(c1ccccc1)c1ccccc1)c1ccc(C)cc1 | 0.263 | 0.607
CC(=O)Nc1ccc(S(=O)(=O)NN2C(=O)/C(=C/c3ccco3)N=C2c2ccccc2)cc1 | 0.258 | 0.617
COc1ccc(OC)c(CNc2ccc3c(c2)nc(C)n3C)c1 | 0.25 | 0.63
O=C(CSc1nnc(-c2ccncc2)n1-c1ccc(Cl)cc1)Nc1ccc2cn[nH]c2c1 | 0.247 | 0.592
CC1=C(C(=O)Nc2ccccc2C)C(c2cccs2)C(C#N)=C(SCC(=O)Nc2cccc(Cl)c2)N1 (stereo not given) | 0.25 | 0.618
Cc1cc(=O)n(-c2ccccc2)n1CNc1nccs1 | 0.258 | 0.602
CCN(CC)CCNC(=O)c1c(C)oc2cc3c(C(=O)NCCN(CC)CC)c(C)oc3cc12 | 0.239 | 0.624
COc1cc(Cl)c(Cl)cc1Cl | 0.251 | 0.604
COc1cc(O)ccc1/C=N/NC(=O)c1cccc([N+](=O)[O-])c1 | 0.248 | 0.614
CCOc1ccc(C(CC(=O)O)NC(=O)c2cccc([N+](=O)[O-])c2)cc1OC (stereo not given) | 0.245 | 0.643
COc1ccc(NC(=O)CC2C(=O)N(c3ccc(OC)cc3)C(=S)N2CCCn2nc(C(F)(F)F)cc2C(F)(F)F)cc1 (stereo not given) | 0.252 | 0.61
COc1ccc(N2CC(=O)N(/N=C/c3ccccc3Cl)C2=S)cc1 | 0.259 | 0.629
CC1(C)COC(=CC(=O)c2ccc(Cl)cc2)N1 | 0.237 | 0.612
CCCc1cc(=O)c2ccc(O)cc2o1 | 0.259 | 0.611
Nc1nc(-c2ccccc2)nc(-n2cccc2)n1 | 0.231 | 0.608
O=S(=O)(c1cccc2ccccc12)N1CCN(c2ccc(Cl)c(Cl)c2)CC1 | 0.256 | 0.62
C=CCc1cc(-c2cc(C(=O)O)c3c(ccc4ccccc43)n2)cc(OC)c1O | 0.259 | 0.622
COc1ccc(C2NCC(C(=O)O)S2)cc1 (stereo not given) | 0.249 | 0.615
CCc1nnc(NC(=O)COC(=O)CSc2nc(-c3ccccc3)cc(-c3ccccc3)n2)s1 | 0.238 | 0.627
COc1cc(C(=S)N2CCCCC2)ccc1OC(=O)c1ccccc1 | 0.00796 | 0.606
N#C/C(=C\c1cccn1-c1ccc(OC(F)(F)F)cc1)S(=O)(=O)c1ccccc1 | 0.237 | 0.618
COc1ccc(C2CC(=O)C3=C(C2)Nc2ccccc2NC3c2ccccn2)cc1 (stereo not given) | 0.253 | 0.611

SMILES | plate-normalized OD600 growth (temperature: 15°C, 48 h) | plate-normalized OD600 growth (temperature: 37°C, 24 h)
CCCCNC(=O)CSc1nc2ccc(N)cc2s1 | 0.252 | 0.608
c1ccc(C2CC(c3cccs3)n3ncnc3N2)cc1 (stereo not given) | 0.256 | 0.605
Cc1cc(NC(=NS(=O)(=O)c2ccc(Br)cc2)c2ccccc2)c(Cl)c(C)c1O | 0.214 | 0.634
Cc1ccc2nc(/C(C#N)=C/c3cc([N+](=O)[O-])c(N4CCOCC4)cc3N3CCOCC3)[nH]c2c1 | 0.244 | 0.618
CC(C)(C)NC(=S)NC1CCN(Cc2ccccc2)CC1 | 0.246 | 0.615
COc1c(Cl)cnc(Cl)c1C(N)=O | 0.265 | 0.636
Cc1ccc(C(=O)NCCc2ccccc2)cc1 | 0.248 | 0.593
O=C(N/N=C\c1cccs1)c1ccccc1CO | 0.241 | 0.614
c1ccc(-c2nc3nnnn3nc2-c2ccccc2)cc1 | 0.242 | 0.616
Cc1ccc(C2CC(=O)C3=C(C2)Nc2ccccc2N(C(=O)C2CC2)C3c2cccnc2)cc1 (stereo not given) | 0.253 | 0.629
Cc1ccnc(NC(=O)c2cccs2)c1 | 0.259 | 0.621
Cc1ccc(Oc2ccc(C)cc2)cc1 | 0.243 | 0.645
CC(C)Oc1ccc(C(=O)CCN2CCOCC2)cc1 | 0.237 | 0.608
CC(Oc1ccc(Br)cc1)C(=O)NNC(=O)c1cc2cc(Br)ccc2oc1=O (stereo not given) | 0.227 | 0.612
Cc1cccc(NC(=O)c2cccs2)n1 | 0.246 | 0.616
CCOC(=O)C1=C(c2ccccc2)OC(N)=C(C#N)C1c1cc([N+](=O)[O-])cs1 (stereo not given) | 0.238 | 0.609
CC(=O)Nc1ccc(NC(C)=O)c(NC2OCC(O)C(O)C2O)c1 (stereo not given) | 0.243 | 0.624
O=C1/C(=C/c2cccc(OCc3ccc(Cl)cc3)c2)Sc2ccccc21 | 0.227 | 0.645
N#C/C(=C\Nc1ccc2c(c1)OCCO2)S(=O)(=O)c1ccc(C(F)(F)F)cn1 | 0.268 | 0.625
O=C(CNC(=O)C(c1ccccc1)c1ccccc1)N/N=C/c1cc(Br)ccc1O | 0.237 | 0.617
CCCOc1ccccc1/C=N\NC(=S)Nc1cccc(F)c1 | 0.272 | 0.645
O=C(Oc1ccc(NC2=NS(=O)(=O)c3ccccc32)cc1)c1ccccc1 | 0.239 | 0.62
O=C(NC1(C(F)(F)F)C(=O)Nc2c1c(=O)[nH]c(=O)n2-c1ccccc1)c1ccc(Cl)cc1 (stereo not given) | 0.241 | 0.641

Rewritten tab-delimited: 2 of the compounds above.
SMILES	plate-normalized OD600 growth (temperature: 15°C, 48 h)	plate-normalized OD600 growth (temperature: 37°C, 24 h)
Cc1ccc(C2CC(=O)C3=C(C2)Nc2ccccc2N(C(=O)C2CC2)C3c2cccnc2)cc1 (stereo not given)	0.253	0.629
Cc1ccnc(NC(=O)c2cccs2)c1	0.259	0.621
